PubChem BioAssay AID504791, Drosophila RNAi Screening Center – 2011
Assay: 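Genes of the fly required for silencing by miRNA, siRNA or endo-siRNA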 (primary screen). System: Drosophila S2-derived reporter cells. Reagents: long dsRNA against Drosophila genes, about 150-250 ng dsRNA per well (siRNA assay); about 80-120 ng (miRNA assay). Timing: about 5 days (siRNA assay); about 4 days (miRNA assay). Treatment: copper sulfate induction of reporters: 25 µM (siRNA assay); 200 mM stated (miRNA assay), 1-2 days before reading. Detection: 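Per-well ratio of Renilla over firefly light, expressed relative to that plate's average ratio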. Hit rule: 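a well was a first-pass pick when its plate-scaled ratio rose above 1.5 (siRNA assay) or 1.6 (miRNA assay), or dropped below 0.6; a gene counted only if two separate dsRNAs agreed on retest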.
In all, the deposit lists about 23,000 reagents; this is an unselected part of those that have a named target and a result. In the full data, 199 (0.86%) were called active. 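Plate-scaled ratios behind the calls are not deposited; printed light signals are raw; many rows marked increased or decreased are still called inactive.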 The record does not give: the direction of the score.

target	PubChem SID	stable siRNA reporter change	miRNA reporter change	stable assay Renilla, run 1 (luminescence)	stable assay firefly, run 1 (luminescence)	activity call
CG8314	SID104186936			7829	2.96e5	inactive
CG17195	SID104194980			7551	3.25e5	inactive
Ldaf1 (Lipid droplet assembly factor 1)	SID104197755			7398	5.08e5	inactive
stet (stem cell tumor)	SID104188038			6279	3.34e5	inactive
stet (stem cell tumor)	SID104188075			6451	4.67e5	inactive
Calr (Calreticulin)	SID104196406			6691	3.76e5	inactive
Osi9 (Osiris 9)	SID104192070			4972	4.58e5	inactive
CG11076	SID104196989			6051	3.68e5	inactive
CG6675	SID104183527			6343	4.01e5	inactive
CG13144	SID104182033			7175	2.76e5	inactive
Pfrx (6-phosphofructo-2-kinase)	SID104198648			5607	3.56e5	inactive
Pfrx (6-phosphofructo-2-kinase)	SID104199107			5408	4.03e5	inactive
DNAlig1 (DNA ligase 1)	SID104184310			8901	1.58e6	inactive
CG9743	SID104196344			6307	4.05e5	inactive
RhoGDI	SID104190711			7819	4.00e5	inactive
Las (Lipoic acid synthase)	SID104191564			8762	3.25e5	inactive
Gem2 (Gemin 2)	SID104189513			7258	2.20e5	inactive
CG7841	SID104190714			7783	4.04e5	inactive
CG11842	SID104194192			9118	6.07e5	inactive
CG15353	SID104180175			4400	3.80e5	inactive
GstE8 (Glutathione S transferase E8)	SID104186470			10730	4.43e5	inactive
CG18273	SID104197942	reporter ratio lowered past the hit cutoff		5107	6.48e5	inactive
CG18273	SID104198297	reporter ratio raised past the hit cutoff		2064	75318	inactive
CG34269	SID104187676			5443	4.27e5	inactive
CG14007	SID104182131			7899	3.60e5	inactive
CG5104	SID104191557			7294	4.33e5	inactive
Tim17b2 (Translocase inner membrane 17)	SID104183249			7834	4.95e5	inactive

Next part; the last 2 above are carried over.
target	PubChem SID	stable siRNA reporter change	miRNA reporter change	stable assay Renilla, run 1 (luminescence)	stable assay firefly, run 1 (luminescence)	activity call
CG5104	SID104191557			7294	4.33e5	inactive
Tim17b2 (Translocase inner membrane 17)	SID104183249			7834	4.95e5	inactive
Ndae1 (Na[+]-driven anion exchanger 1)	SID104180767			5608	5.30e5	inactive
Ndae1 (Na[+]-driven anion exchanger 1)	SID104182562			10742	4.65e5	inactive
CG6763	SID104195902			6898	3.11e5	inactive
Sptz (Spastizin)	SID104195550			7368	4.48e5	inactive
thw (thawb)	SID104192344			7583	4.07e5	inactive
CG4617	SID104198169			7521	3.92e5	inactive
bin3 (bicoid-interacting protein 3)	SID104184711			7099	5.21e5	inactive
CG3939	SID104198290			5780	4.48e5	inactive
CG12818	SID104194348			6143	3.91e5	inactive
mon2 (monensin sensitivity 2)	SID104182904			8031	3.28e5	inactive
CG17108	SID104182368			7122	4.16e5	inactive
CG17108	SID104201749		reporter ratio raised past the hit cutoff	9335	6.35e5	inactive
CG6938	SID104190544			6816	4.81e5	inactive
RNASEK (Ribonuclease kappa)	SID104201333			9866	4.63e5	inactive
fipi (factor of interpulse interval)	SID104180257			6791	3.89e5	inactive
CG34175	SID104180216	reporter ratio lowered past the hit cutoff		9613	9.39e5	inactive
CG12594	SID104194324			6355	4.16e5	inactive
CIA30 (Complex I intermediate-associated protein, 30 kDa)	SID104196058			9082	7.39e5	inactive
BORCS5 (BLOC-1 related complex subunit 5)	SID104199219			9074	4.40e5	inactive
CG6059	SID104195750			8434	4.26e5	inactive
Sardh (Sarcosine dehydrogenase)	SID104186773			12118	3.58e5	inactive
CG17349	SID104182402			6956	4.52e5	inactive
qua (quail)	SID104183390			6770	3.78e5	inactive
l(3)76BDm (lethal (3) 76BDm)	SID104190839			8430	3.54e5	inactive
CG14971	SID104188222			6874	3.94e5	inactive
RpL13A (Ribosomal protein L13A)	SID104192057			9917	3.74e5	inactive
CG4372	SID104184258			6923	3.45e5	inactive
CG31229	SID104193101			3963	4.05e5	inactive
CG10910	SID104185799			5244	4.11e5	inactive
Coa7 (Cytochrome c oxidase assembly factor 7)	SID104200759			7175	6.56e5	inactive
